The record followed here is patent US20200325476.

In the data set the target is alpha-synuclein (monomer) (UniProt P37840). Kind of data set: inhibition of the protein. Conditions: mean aggregate size by TEM, control without aptamer 242±220 nm, PBS, 37 C, purified recombinant protein, single-stranded DNA, dose not given here.

As for “ATAGTCCCATCATTCATTGAACGGAATGGCGCGGTGACCGGATAGTGTAGATATTAGCAAGTGTCA [a-syn-4 (LTMull)]”, the “functional effect of the aptamer” value is “active”.

Consider “ATAGTCCCATCATTCATTGTAAGGAAACGCTACGGGGTGGGTACGGCAAGATATTAGCAAGTGTCA [a-syn-1 (1LBwAAjJ)]”, for which the “functional effect of the aptamer” value (no fibrils seen under MJFF protocol) is given as “active”. Turning to “ATAGTCCCATCATTCATTGTATGAGATGGGGTGGTGACGTCAGCATGGAGATATTAGCAAGTGTCA [a-syn-3 (GdJUhe)]”, the “functional effect of the aptamer” value is “active”. The same measure, in the same setting: in the case of “ATAGTCCCATCATTCATTGTATGATACAGTGAGGTGGCAGATGCATGCAGATATTAGCAAGTGTCA [a-syn-5 (JueRc)]” it was “active”; in that of “ATAGTCCCATCATTCATTGTATGGTACGGCGCGGTGGCGGGTGCGGGGAGATATTAGCAAGTGTCA [a-syn-2 (1LBiGJFJC)]”, “active”.
